Measurements from the supplement of paper PMC5949888.
Most values lie at the floor of the assay. Slopes are relative: functional sequences can read slightly below zero.

What follows are substances tested on Saccharomyces cerevisiae PS128 hsf1 delta, HSF1(1-493) fusion (assay: growth estimate (transactivation domain function in HSF1 fusion, heat-shock survival) (a.u. (slope of normalised read count over time)); higher = stronger growth at 37°C, i.e. more transactivation activity). Settings: library: random library.

| Substance | growth estimate |
| --- | --- |
| TGWVNRAQ | < -0.25 |
| QAF | < -0.25 |
| VTKVDVGAETLVSLRPV | < -0.25 |
| ILWARCDRG | < -0.25 |
| LLDILEGTYPMGYDVSPSFV | 0.945 |
| QVVTSTMGPVGRGAHRANRG | < -0.25 |
| YSFKGIFRAFYES | < -0.25 |
| RRAIVGWLCTA | < -0.25 |
| DLLRMTPACGVTVRCGYIPT | < -0.25 |
| EGTL | < -0.25 |
| RAHEDTSVPQARPRHVSRIV | -0.25 |
| KDAGNKQSAPKSLWRREDVH | < -0.25 |
| GVGR | < -0.25 |
| MGRNAAATPMRRRRHPVKCG | < -0.25 |
| PTYMGM | < -0.25 |
| RPCCG | < -0.25 |
| GVAQGRLMSYLLSAPSCKPQ | < -0.25 |
| SIWMHS | < -0.25 |
| IGVESLPIGRVVPWHVGLTG | < -0.25 |
| CRTSVDRQALQHIGHSKIFT | < -0.25 |
| CMKRLSDRGISWCYNAAIIP | < -0.25 |
| VVGNIQLYV | < -0.25 |
| QVMPKRFRGNSRLTLVVDTI | < -0.25 |
| NGHCQQTRLTFRWRDCSEPS | < -0.25 |
| DISGSRKSGHFTITARRGGS | < -0.25 |

| Substance | growth estimate |
| --- | --- |
| YGGPLDLRFWFGEVSRVCFS | < -0.25 |
| CSLGTEFRGIIICRTWHREP | < -0.25 |
| GLLIPSGLELRAL | < -0.25 |
| LNIDRRIGP | < -0.25 |
| VMRGSQGVGMATIWAANYRS | < -0.25 |
| ARLSIRSS | < -0.25 |
| YAGRVSPLGVNHPCGGYDGE | < -0.25 |
| SLRQQTRAWKTGAGETDPCA | < -0.25 |
| DMLFRDVCDNAELHKIVYQI | < -0.25 |
| RESCQKDWHLRVRENLAFAV | < -0.25 |
| RNLRVRGATGDVLPASVA | < -0.25 |
| DNGAQFEEVNGAR | < -0.25 |
| PFDTPSICEAEIRSFHCVVS | < -0.25 |
| VHPDDNYITRWTTELNGNGF | < -0.25 |
| PHFQPSYCCAYRSVNPCTDR | < -0.25 |
| SRLEVLQ | < -0.253 |
| VLPYFRLAWLNLVTRIVVRL | < -0.25 |
| KCYGGLLAIVMVPYWKYARA | < -0.25 |
| RIADEIFYGSKHRIG | < -0.25 |
| NLPIRTKFVLVRTLGGLH | < -0.25 |
| GDRWSMPEAVLGCDARSLVL | < -0.25 |
| KQGGRE | < -0.25 |
| FALRTAV | < -0.25 |
| RLHGRGDPSYAAMGGTCVVK | < -0.25 |
| TEVAHKSQFDLFGSRGPPLN | < -0.25 |

| Substance | growth estimate |
| --- | --- |
| AHRG | < -0.25 |
| LTRRVI | < -0.25 |
| RLLGELGSVCVKTYERDGRS | < -0.25 |
| FHRAGTSRY | < -0.25 |
| QLD | < -0.25 |
| SPGWHCRHDALGFVGSLRPG | < -0.25 |
| RAFL | < -0.25 |
| LESGRSHFAWACYAKVGSPA | < -0.25 |
| SVDLRTILVKCANL | < -0.25 |
| IPQRPARTSNTNSPADARFR | < -0.25 |
| NQT | < -0.25 |
| HLTDAGIFPNL | < -0.25 |
| NFQLSAWPMNIGQTEDENRN | < -0.25 |
| SPCFVWQRTLASTDFTILTL | < -0.25 |
| SVWRRALENCKRVVVQIQQR | < -0.25 |
| TKRKRTRRVSRHLVRSVTTW | < -0.25 |
| SSGIV | < -0.25 |
| VTSS | < -0.25 |
| NGSKRGKA | < -0.25 |
| RRRVRALTGPYSNRVTWRPK | < -0.25 |
| RGSISSSLETTHASRGSVDT | < -0.25 |
| ARLYLKRQLRV | < -0.25 |
| DVAR | < -0.25 |
| LTSTVSVRRNMEREGVVMWQ | < -0.25 |
| DSN | < -0.25 |

| Substance | growth estimate |
| --- | --- |
| DRTPEAPSTRFLCTGRAVWA | < -0.25 |
| FEGLPPRVEE | < -0.25 |
| WTGATVATRDDLVLGLSAHV | < -0.25 |
| SGRSLMVPGNSSQ | < -0.25 |
| LWGLSGGVTWLQPANIWPLM | < -0.25 |
| SDGACSNS | < -0.25 |
| IIRGLSFWRSVRVHTRERPP | < -0.25 |
| HNRNFKRSS | < -0.25 |
| LTHCAGVFCHNQRVYALTC | < -0.25 |
| LGEMTIR | -0.246 |
| KDVYS | < -0.25 |
| RDIFAKLPMRYVNSTPGHHR | < -0.25 |
| IVRV | < -0.25 |
| GQRDTPVRGGSRMYCSSVTA | < -0.25 |
| NLSTITMFSC | 0.391 |
| STYTGLESWRFDNQGQLLAE | < -0.25 |
| LSVSIPWGRRQWARRASLLC | < -0.25 |
| SHVCGDLRRAIACARCTTNH | < -0.25 |
| EGCVGGRQGAACTRVLQGVT | < -0.25 |
| LTLPFSSANAVD | < -0.25 |
| CGSQFLLLRKVWGICIRLLA | < -0.25 |
| AADWEFSCAKGKCAGGGGLW | < -0.25 |
| ITHTFMWKLTMRGDPFCTLF | < -0.25 |
| GVPEVNGL | < -0.25 |

Reprinted at random: five entries already listed.

| Substance | growth estimate |
| --- | --- |
| IIRGLSFWRSVRVHTRERPP | < -0.25 |
| KDVYS | < -0.25 |
| GVPEVNGL | < -0.25 |
| EGCVGGRQGAACTRVLQGVT | < -0.25 |
| AADWEFSCAKGKCAGGGGLW | < -0.25 |
